Measurements reported in paper PMC3933784.
Results are given in words; binding and its absence hold for the method and conditions named. Some results given as binding are weak or reduced against the parent protein; the word gives no strength.

Target: plant actin 7 (UniProt P53492)
Assay: two-hybrid; yeast two-hybrid; told as 'Minina et al., 2009 and unpublished data'; bait and prey not told

- binding: binds
B1: At-4/1 protein (protein, UniProt Q1PE49 1-247)
chain: MAATSDEQMNLLLSSFDQIYEDFKIGLNEINVYRSKSNVESSRREVLEISNKNLKEENERLKKLYTESLNNFADQLEHRTKCHSLKEELKRVNDENKSKEHEHRNALESLRQKHVTKVEELEYKIRSLLVEKATNDMVIDRLRQDLTANKSHIQAMSKKLDRVVTEVECKYELEIQDLKDCLLMEQAEKNDISNKLQSLQKELLISRTSIAEKQRDTTSNRQVETLKQKLMKLRKENEILKRKLSSS
